Consider 37 molecules from PubChem BioAssay AID2685 (National Center for Advancing Translational Sciences (NCATS), 2010).

Each structure is given as a SMILES string. Some of the results follow. Shown are side measurements of this screen, not its main read-out; they come without a call. Compounds called inactive in the main read-out are mostly missing here. Potencies come from curve fits of mixed quality, noted in brackets.

The assay in a line: qHTS Assay for Lipid Storage Modulators in Drosophila S3 Cells.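 As to cell number change: cells counted by Cell Tracker Red CMTPX staining in the red channel.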 The conditions noted are these: BODIPY lipid droplet fluorescence, 18-24 h; for cell number change: measured here: cell count max response, cells fed with added oleic acid. The method in brief:
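Laser-scanning cytometry quantifies lipid droplet accumulation (500–530 nm total intensity; droplet/cell object ratio) in oleic acid-fed (400 uM added) Drosophila S3 cells treated with a concentration series. 20 uM Triacsin C defined 100% inhibition.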
On the technique in general: In qHTS, concentration-response curves come from the screen itself.

The mark [1] stands for this setting: measured here: cell number channel AC50, cells fed with added oleic acid.
The mark [2] stands for this setting: measured here: lipid fluorescence (Fed channel) AC50, cells fed with added oleic acid.

Turning to `CC(=O)n1cc([C@H]2C=C(C(=O)N3CCN(Cc4ccccc4)CC3)O[C@@H](OCc3ccc(CO)cc3)C2)c2ccccc21`, the cell number change was -20.9%.

As for `COc1cccc(C(=O)NCC(c2ccc3c(c2)OCO3)N2CCN(c3ccc(F)cc3)CC2)c1` (stereo unspecified), the half-maximal activity concentration (AC50) – broadly, the concentration at which the activity in the assay is half-maximal – runs as follows: under setting [1], 0.13 µM [rising, full curve, poor fit]; under setting [2], 0.13 µM [rising, full curve, poor fit].

For the molecule `Fc1ccccc1C1c2cccn2CCN1C(=S)Nc1ccc(Br)cc1` (stereo unspecified), the cell number change came out at 39.3%. Moreover, under setting [1], the AC50 was 0.13 µM [rising, full curve]. In addition, under setting [2], the AC50 was 29.1 µM [rising, single point].

For the molecule `Cc1c(C(=O)NCc2cccs2)oc2ccc(S(=O)(=O)N3CCOCC3)cc12`, the cell number change came out at 36.4%. Further, the AC50 under setting [1] is 13 µM [rising, partial curve]. In addition, the AC50 under setting [2] was 0.651 µM [rising, full curve, poor fit].

`CCOC(=O)c1cnc(Nc2ccc(OCC)cc2)nc1C`: the cell number change was determined as 4.38%.

Consider `O=C(NCCc1ccccc1)C1CCCN1S(=O)(=O)c1cccc2nsnc12` (stereo unspecified), for which the cell number change was -10.8%.

Regarding `O=C(CS(=O)(=O)c1cn(CC(=O)N2CCOCC2)c2ccccc12)NCc1ccc(F)cc1`, the cell number change is -17.3%. Besides, under setting [2], the half-maximal activity concentration (AC50) is 4.47 µM [falling, full curve, poor fit].

Consider `CN(CC(=O)Nc1ccc(F)cc1)C(=O)c1ccc(OCc2ccccc2)cc1`, for which the cell number change came to 194%. Further, the AC50 under setting [1] is 18.4 µM [rising, single point].

With `O=C(Nc1ccc(C(=O)N2CCOCC2)cc1)Nc1ccc(Cl)cc1Cl`, the cell number change was -17.3%. In addition, the AC50 under setting [1] was 5.8 µM [falling, single point].

Turning to `COc1ccccc1NC(=O)N1CCCC1C(=O)Nc1nnc(C(C)C)s1` (stereo unspecified), the cell number change was -21.4%. Also, the AC50 under setting [1] is 0.517 µM [falling, full curve, poor fit]. In addition, the AC50 under setting [2] was 6.51 µM [falling, single point].

As for `Cc1ccc(C(=O)Oc2oc(-c3ccco3)nc2C=Nc2ccc(Cl)cc2)cc1`, the cell number change is 17.9%. Besides, the AC50 under setting [2] is 18.4 µM [rising, single point].

As to `OC(COCc1cccs1)CN1CCN(c2cccc(Cl)c2)CC1` (stereo unspecified), the cell number change is -36.5%. Further, the half-maximal activity concentration (AC50) under setting [1] was 29.1 µM [falling, single point].

`O=C(O)c1ccccc1C(=O)Nc1ccc(S(=O)(=O)Nc2ccc(F)cc2)cc1`: the AC50 under setting [2] was 29.1 µM [rising, single point].

`O=C(c1ccc(Cl)c(S(=O)(=O)N2CCOCC2)c1)N1CCCC1`: the cell number change is -1.32%. The half-maximal activity concentration (AC50) under setting [2] was 7.08 µM [rising, partial curve, poor fit].

For `COc1cc(NC(=O)CSc2ncnc3sc4c(c23)CCCC4)c(C(=O)O)cc1OC`, the cell number change was -5.65%. The AC50 under setting [2] was 6.51 µM [rising, single point].

`O=C(NCc1ccco1)C1CCCCC1`: the cell number change amounted to 5.97%. Moreover, the AC50 under setting [1] was 6.51 µM [falling, partial curve, poor fit]. The AC50 under setting [2] is 0.0058 µM [falling, full curve, poor fit].

As to `Cc1cc(C(=O)Nc2ccc(C)c(S(=O)(=O)N3CCOCC3)c2)c2ccccc2n1`, the cell number change was -7.65%.

On to `CC(OC(=O)CC1CCCC1)C(=O)Nc1ccc(Cl)cn1` (stereo unspecified), for which the cell number change is -22.9%. In addition, under setting [2], the AC50 is 0.731 µM [falling, partial curve].

`C/C(=N/OC(=O)c1c(-c2c(Cl)cccc2Cl)noc1C)c1cnccn1`: the cell number change stood at 10.9%. Further, the AC50 under setting [2] is 0.13 µM [rising, full curve, poor fit].

Consider `CCOC(=O)N1CCC(=C(C#N)C(=O)Nc2cc(OC)ccc2OC)CC1`, for which the cell number change is -15.8%. Further, the AC50 under setting [2] was 0.146 µM [falling, full curve, poor fit].

Regarding `Brc1cccc(-c2nnco2)c1`, the half-maximal activity concentration (AC50) under setting [1] was 0.82 µM [falling, single point].

Take `CC(C)(C)c1ccc(C(=O)NCC(=O)NCc2ccccn2)cc1`: the cell number change is -19.4%. The AC50 under setting [2] is 0.184 µM [falling, full curve, poor fit].

In the case of `CCC(C)Sc1ccc([C@H]2N[C@@](CC(C)C)(C(=O)OC)[C@H]3C(=O)N(CC)C(=O)[C@@H]23)cc1` (stereo partly specified), the cell number change is -37.4%. Besides, the AC50 under setting [1] is 18.4 µM [falling, partial curve, poor fit]. In addition, the concentration at half-maximal activity (AC50) under setting [2] is 13 µM [falling, partial curve, poor fit].

Consider `Cc1cc(C)nc(NC(=O)c2cccc([N+](=O)[O-])c2C)n1`, for which the cell number change worked out at 49.5%. For the same molecule, the half-maximal activity concentration (AC50) under setting [1] was 32.6 µM [rising, partial curve, poor fit]. The AC50 under setting [2] is 29.1 µM [rising, single point].

As for `CCOC(=O)C1C(c2ccc(O)cc2)NC(=O)NC1(O)C(F)(F)F` (stereo unspecified), the cell number change is -12.9%.

Consider `CC(=O)Nc1ccc(S(=O)(=O)Nc2ccc3c(c2)OCO3)cc1`, for which the cell number change was 2.63%. Moreover, the AC50 under setting [2] is 35.5 µM [falling, single point].

As to `CCc1ccccc1N(CC(=O)NC1CCCCC1)C(=O)CCC(=O)Nc1ccccn1`, under setting [2], the half-maximal activity concentration (AC50) was 0.731 µM [falling, full curve, poor fit].

Take `CN(Cc1cccs1)C(=O)/C=C/c1ccccc1[N+](=O)[O-]`: the cell number change amounted to 56%. The AC50 under setting [1] was 8.2 µM [rising, partial curve]. In addition, the AC50 under setting [2] is 0.517 µM [rising, full curve].

Regarding `CCCCC(C(=O)OCC(=O)c1ccc(OC)cc1)N1C(=O)c2ccccc2C1=O` (stereo unspecified), the cell number change was -21.2%. The half-maximal activity concentration (AC50) under setting [2] is 16.4 µM [falling, single point].

`CCn1nc(C(=O)Nc2nc3ccc(C)cc3s2)c2ccccc2c1=O`: the cell number change worked out at 34.7%. Moreover, the AC50 under setting [1] is 0.517 µM [rising, full curve].

For `CC(C)c1ccc(NC(=O)CSc2n[nH]c(=O)n2-c2cccnc2)cc1`, the cell number change was -3.78%. Besides, the AC50 under setting [2] is 29.1 µM [rising, single point].

As to `COc1ccc(C(=O)Nc2nnc(S(=O)(=O)Cc3ccccc3)s2)cc1`, the cell number change worked out at 20.6%. Besides, the AC50 under setting [2] was 29.1 µM [falling, single point].

For the molecule `S=c1[nH]c2ccccc2o1`, the AC50 under setting [2] was 0.103 µM [falling, full curve, poor fit].

As to `CCOc1ccccc1NC(=O)C1=C(C)NC(=O)NC1c1cccc(OC)c1OC` (stereo unspecified), the cell number change amounted to 60.8%. Under setting [2], the AC50 is 4.11 µM [rising, full curve].

For `COCCNS(=O)(=O)c1ccc(-c2ccc(C)cc2)cc1`, the cell number change was 4.77%.

In the case of `CCCOc1ccc(CSc2nnc(CCC)n2N)cc1`, the cell number change was 0.0568%. For the same molecule, under setting [2], the half-maximal activity concentration (AC50) is 4.11 µM [rising, full curve].

Regarding `CN1C(=O)C(C)(C)c2cc(S(=O)(=O)NCC3CCC(C(=O)NC4CCCCC4)CC3)ccc21` (stereo unspecified), the cell number change stood at 13.4%. In addition, the AC50 under setting [2] is 29.1 µM [falling, single point].
